Experiment: general procedure: Fmoc solid-phase peptide synthesis; Rink amide resin
Details: whole synthesis, LCMS (Shimadzu 2010AD), reverse phase C8 column

Substance: pyrGlu-Ala-Lys-Ser-Gln-Gly-Gly-Ser-Asn (EAKSQGGSN; N-terminal pyroglutamate; printed: Glu-Ala-Lys-Ser-Gln-Gly-Gly-Ser-Asn)
- purity (crude or final not stated): >95%
